Measurements as given in paper PMC5007355.
Construct, isoform or probe ends are uncertain for at least one entry. The comparison behind a weaker result is the experiment's own reference, which may not be listed here. Protein sequences can lack the tags named with them.

Tests used:
[1] = target: T1, Fur (ferric uptake regulator) (UniProt O25671); assay: competitive DNase I footprinting; conditions: Footprinting: 15 fmol probe in 50 ul, 300 ng salmon sperm DNA, room temperature, 150 uM Fe2+ or dipyridyl, competitive buffer 20 mM HEPES pH 7.85, 50 mM KCl, recombinant protein, label: 5'-32P on one strand, probe letters rebuilt from the primers and the genome, part of a longer molecule
T1 sequence (looked up, limits assumed): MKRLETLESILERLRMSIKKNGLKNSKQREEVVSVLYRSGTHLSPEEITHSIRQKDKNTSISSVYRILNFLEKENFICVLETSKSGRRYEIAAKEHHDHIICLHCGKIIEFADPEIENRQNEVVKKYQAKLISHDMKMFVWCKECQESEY

[2] = target: T1, Fur (ferric uptake regulator); assay: DNase I footprinting; conditions: holo (150 uM Fe2+), site fOPII, affinity lower than apo; Footprinting: 15 fmol probe in 50 ul, 300 ng salmon sperm DNA, room temperature, 150 uM Fe2+ or dipyridyl; competitive buffer 20 mM HEPES pH 7.85, 50 mM KCl; recombinant protein; label: 5'-32P on one strand; probe letters rebuilt from the primers and the genome; part of a longer molecule

Measured: binding result

CGATTAGAATCTTTGGAGCGAGAAAACACAGAGTGAAAAATGATCAAAGGAATTGCTTAAAAACATTAAAAAATAAGACTTTAATTTTTAATATTCCATGAAAACAAAGCCTTAATTTCCATTAATAACTATGATAATGTTTTGAATTTTTATTTTTAAGATATTTTCAAGGTATCTTTAATAATAAAATGCTAGAATTAGTCCCTTAAAACATTAGCAAAGTTAATCGTTTTTAAAGTTGCAGAAATCATTGAAGGAGTTAAT (double strand) [ParsR wild-type footprinting probe]
binds more weakly: [1]; holo-Fur 70 nM tetramer plus increasing holo-NikR (to 32 nM tetramer), 150 uM Ni2+, site fOPIII | [1]; holo-Fur 70 nM tetramer plus increasing holo-NikR, site fOPII | [2]
